Measured values from patent US20200325237A1.
These are yes or no findings as the source states them, for the method shown. Some entries that bind do so weakly or less than the wild type.

Target: recombinant cyno transferrin receptor protein (Sino Biological 90253-C07H) (cyno)
Assay: ELISA on plate-coated recombinant cyno TfR1

B1: hTfR1.IgG2 mAb (chimeric human IgG2 anti-hTfR1 antibody) (antibody, V domains shown)
VH: QVQLQQPGAELVKPGASVKLSCKASGYTFTNYWMHWVKQRPGQGLEWIGEINPINGRSNYGERFKTKATLTVDKSSSTAYMQLSSLTSEDSAVYYCARGTRAMHYWGQGTSVTVSS
VL: DIQMTQSPASLSVSVGETVTITCRTSENIYNNLAWYQQKQGKSPQLLVYAATNLADGVPSRFSGSGSGTQYSLKINSLQSEDFGNYYCQHFWGTPLTFGAGTKLELKR
binding: binds
